Drawing on patent US20250311759A1, “ORGANIC COMPOUNDS” (GIVAUDAN SA, priority 2022, published 2025), this text covers taste in water for three compounds.

The test system of the data set is sensory panel. As to the kind of experiment: Taste in water by a sensory panel. The class given is in vivo.

As for `c1c[nH]cn1` [1H-imidazole], the taste in water result is “subtle salty taste” (50 ppm in water); “weak salty taste along with some astringency and acidity” (100 ppm in water); “weak salty taste, but there is mainly a bitter taste” (1000 ppm in water); “no effect” (up to a concentration level of 40 ppm in water).

Consider `O=C(O)Cc1c[nH]cn1` [2-(1H-imidazol-4-yl)acetic acid], for which the taste in water result by setting is: (30 ppm in water) “subtle salty and mineral taste”; (90 ppm in water) “weak salty, mineralic taste with a slightly sour note”.

With `c1ccc2[nH]cnc2c1` [benzimidazole], the taste in water entry was “subtle salty and sour taste” (30 ppm in water); “weak salty taste along with some sour background” (70 ppm in water).
